The experiment addresses Ab-1. Briefly: BLI titration.

No constants are given. Whether binding was seen depends on the method and setting. Some binding calls cover weakened binding; strength is not graded here.

Consider KDWCPRDLWVHCFA [Peptide-12], for which the binding entry was “binds”. On to TDWCPRDLWVHCFA [Peptide-16], for which the binding entry is reported as “binds”. As for EDWCPRDLWVHCFA [Peptide-7], the binding entry is on record as “binds”. For IDWCPRYLWDECYN [Peptide-23] the value was “binds”; for QDWCPRDLWVHCFA [Peptide-6], “binds”; for RDWCPRDLWVHCFA [Peptide-3], “binds”.

The values are drawn from patent US20260274955A1, “ANTIBODIES FOR TARGETING CD28 AND USES THEREOF” (Janux Therapeutics, Inc., priority 2023, published 2026).
